Data: article PMC8675178
No constants are given. Whether binding was seen depends on the method and setting. In cells and extracts the contact can be indirect. Some binding calls cover weakened binding; strength is not graded here.

By UniProt entry, the sequences of proteins in these tests, tags left out.
UniProt Q16665: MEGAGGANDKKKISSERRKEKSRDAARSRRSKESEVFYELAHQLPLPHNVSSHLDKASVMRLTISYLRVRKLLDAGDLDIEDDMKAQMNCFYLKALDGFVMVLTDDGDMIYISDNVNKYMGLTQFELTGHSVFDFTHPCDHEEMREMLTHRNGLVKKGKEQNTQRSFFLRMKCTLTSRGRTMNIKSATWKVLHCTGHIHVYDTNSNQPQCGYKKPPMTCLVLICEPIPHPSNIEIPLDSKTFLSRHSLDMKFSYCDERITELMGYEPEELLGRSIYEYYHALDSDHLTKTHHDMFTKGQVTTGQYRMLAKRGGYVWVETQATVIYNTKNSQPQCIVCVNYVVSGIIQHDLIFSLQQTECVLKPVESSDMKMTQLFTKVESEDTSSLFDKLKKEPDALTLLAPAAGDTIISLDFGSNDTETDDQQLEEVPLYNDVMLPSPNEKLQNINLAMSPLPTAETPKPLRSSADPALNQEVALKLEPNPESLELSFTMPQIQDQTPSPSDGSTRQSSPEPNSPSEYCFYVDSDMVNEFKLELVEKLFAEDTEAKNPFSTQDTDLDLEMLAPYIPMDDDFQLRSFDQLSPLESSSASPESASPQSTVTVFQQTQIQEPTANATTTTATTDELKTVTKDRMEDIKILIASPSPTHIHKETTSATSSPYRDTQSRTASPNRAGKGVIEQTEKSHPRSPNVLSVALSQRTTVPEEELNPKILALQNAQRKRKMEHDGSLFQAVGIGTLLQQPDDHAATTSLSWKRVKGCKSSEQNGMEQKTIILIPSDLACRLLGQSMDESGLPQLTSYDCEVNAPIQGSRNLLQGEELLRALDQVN
UniProt P14618: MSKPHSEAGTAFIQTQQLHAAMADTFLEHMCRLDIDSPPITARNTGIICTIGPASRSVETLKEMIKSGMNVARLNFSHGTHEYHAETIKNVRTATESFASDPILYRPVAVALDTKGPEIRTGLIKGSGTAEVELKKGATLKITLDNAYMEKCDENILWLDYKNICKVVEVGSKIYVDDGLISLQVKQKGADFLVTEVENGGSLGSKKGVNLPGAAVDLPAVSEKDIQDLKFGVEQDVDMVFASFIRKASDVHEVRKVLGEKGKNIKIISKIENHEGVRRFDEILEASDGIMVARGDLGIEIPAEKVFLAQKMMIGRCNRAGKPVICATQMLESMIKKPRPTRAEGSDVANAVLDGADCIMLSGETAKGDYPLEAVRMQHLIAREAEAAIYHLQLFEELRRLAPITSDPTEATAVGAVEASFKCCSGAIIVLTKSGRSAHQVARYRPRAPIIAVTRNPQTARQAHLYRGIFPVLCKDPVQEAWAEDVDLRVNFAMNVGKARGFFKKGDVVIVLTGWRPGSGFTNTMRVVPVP

Target: HIF-1α (human (endogenous in gastric cancer cell lines)) (UniProt Q16665)
Test: co-IP; lysates of gastric cancer cells; supernatants precipitated with rabbit IgG or HIF-1α-specific polyclonal antibody overnight at 4°C, protein A/G beads 12 h at 4°C, four washes, SDS-PAGE

Substance: PKM2 (from UniProt P14618 1-531) (enzyme)
- binding: binds
